± gives the standard deviation of the averaged measurements. This is a selection; strong and weak results do not stand in their true shares.
Compound: Nc1ncnc2c1ncn2[C@@H]1O[C@H](COP(=O)(O)OP(=O)(O)NP(=O)(O)O)[C@@H](O)[C@H]1O [adenylyl imidodiphosphate]
Assay: NP40-soluble protein abundance relative to vehicle (solubility fold change) (ratio); higher = more soluble protein in presence of AMP-PNP
Summary of the method: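 Crude Jurkat lysate, prepared by Dounce homogenisation, was exposed to eight concentrations from 0.1 to 10 mM for 10 min at room temperature and then 3 min at 37 °C. Solubilisation used 0.8% NP40 with benzonase for 60 min at 4 °C, followed by ultracentrifugation and TMT labelling of the supernatant for LC-MS/MS. After vsn normalisation of intensities, each value is the fold change against the detergent-processed vehicle within each replicate, across three independent experiments.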

The chains behind the UniProt entries cited, without tags or fusion partners. Where a name states a change or a piece, a line headed by the entry shows the natural chain unless it says otherwise.
UniProt Q6P3S1: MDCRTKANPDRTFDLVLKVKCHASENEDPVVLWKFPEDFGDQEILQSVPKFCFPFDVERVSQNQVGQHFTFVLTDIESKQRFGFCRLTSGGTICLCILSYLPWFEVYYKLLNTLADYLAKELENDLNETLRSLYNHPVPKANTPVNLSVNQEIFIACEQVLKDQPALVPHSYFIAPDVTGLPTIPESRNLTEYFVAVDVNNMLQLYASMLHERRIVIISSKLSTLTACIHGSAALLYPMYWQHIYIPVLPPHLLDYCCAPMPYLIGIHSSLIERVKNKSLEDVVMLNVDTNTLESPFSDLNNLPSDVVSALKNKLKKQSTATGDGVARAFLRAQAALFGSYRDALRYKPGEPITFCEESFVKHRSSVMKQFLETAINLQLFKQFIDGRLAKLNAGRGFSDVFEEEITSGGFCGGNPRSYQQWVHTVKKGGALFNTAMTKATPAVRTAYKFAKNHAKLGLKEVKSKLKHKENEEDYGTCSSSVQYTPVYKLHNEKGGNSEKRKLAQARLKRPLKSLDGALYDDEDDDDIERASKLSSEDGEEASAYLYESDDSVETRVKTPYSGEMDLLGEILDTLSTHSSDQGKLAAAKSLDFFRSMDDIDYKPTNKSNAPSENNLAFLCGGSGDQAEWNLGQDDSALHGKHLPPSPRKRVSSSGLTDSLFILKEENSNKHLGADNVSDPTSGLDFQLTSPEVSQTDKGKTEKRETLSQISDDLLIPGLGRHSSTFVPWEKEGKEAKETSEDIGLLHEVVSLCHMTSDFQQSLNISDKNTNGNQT
UniProt Q71RC2, whole entry: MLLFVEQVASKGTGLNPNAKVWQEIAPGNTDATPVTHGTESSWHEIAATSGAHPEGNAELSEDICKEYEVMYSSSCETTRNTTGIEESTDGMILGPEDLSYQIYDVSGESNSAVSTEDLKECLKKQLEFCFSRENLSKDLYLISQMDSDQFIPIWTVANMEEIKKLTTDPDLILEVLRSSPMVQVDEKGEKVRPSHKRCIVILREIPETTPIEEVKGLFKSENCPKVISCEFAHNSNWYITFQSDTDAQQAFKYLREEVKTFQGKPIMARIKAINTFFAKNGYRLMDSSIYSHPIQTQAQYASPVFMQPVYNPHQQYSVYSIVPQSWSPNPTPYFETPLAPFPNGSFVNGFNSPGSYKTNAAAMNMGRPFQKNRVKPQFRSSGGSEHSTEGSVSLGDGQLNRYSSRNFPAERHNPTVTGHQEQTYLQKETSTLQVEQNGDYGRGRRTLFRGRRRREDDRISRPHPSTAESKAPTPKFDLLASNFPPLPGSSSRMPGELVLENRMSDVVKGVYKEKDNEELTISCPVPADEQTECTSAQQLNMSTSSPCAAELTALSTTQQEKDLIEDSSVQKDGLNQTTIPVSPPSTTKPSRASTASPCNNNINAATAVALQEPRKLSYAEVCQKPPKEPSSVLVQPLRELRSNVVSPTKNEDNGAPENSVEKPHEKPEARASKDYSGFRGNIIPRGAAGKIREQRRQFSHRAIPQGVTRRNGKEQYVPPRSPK
UniProt Q75N03: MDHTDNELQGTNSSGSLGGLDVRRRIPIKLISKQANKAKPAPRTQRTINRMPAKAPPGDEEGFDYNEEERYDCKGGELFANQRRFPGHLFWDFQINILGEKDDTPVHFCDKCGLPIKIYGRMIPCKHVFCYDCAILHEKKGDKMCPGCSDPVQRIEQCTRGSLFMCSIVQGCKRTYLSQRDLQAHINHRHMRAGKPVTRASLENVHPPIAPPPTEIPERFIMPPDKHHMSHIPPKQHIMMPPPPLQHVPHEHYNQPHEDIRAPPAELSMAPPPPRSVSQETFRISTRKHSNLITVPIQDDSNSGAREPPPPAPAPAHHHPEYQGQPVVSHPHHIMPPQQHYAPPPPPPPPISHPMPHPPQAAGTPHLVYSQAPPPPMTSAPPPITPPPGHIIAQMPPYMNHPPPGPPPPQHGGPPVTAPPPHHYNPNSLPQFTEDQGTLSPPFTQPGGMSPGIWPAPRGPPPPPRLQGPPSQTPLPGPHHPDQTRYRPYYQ
UniProt Q5VSL9: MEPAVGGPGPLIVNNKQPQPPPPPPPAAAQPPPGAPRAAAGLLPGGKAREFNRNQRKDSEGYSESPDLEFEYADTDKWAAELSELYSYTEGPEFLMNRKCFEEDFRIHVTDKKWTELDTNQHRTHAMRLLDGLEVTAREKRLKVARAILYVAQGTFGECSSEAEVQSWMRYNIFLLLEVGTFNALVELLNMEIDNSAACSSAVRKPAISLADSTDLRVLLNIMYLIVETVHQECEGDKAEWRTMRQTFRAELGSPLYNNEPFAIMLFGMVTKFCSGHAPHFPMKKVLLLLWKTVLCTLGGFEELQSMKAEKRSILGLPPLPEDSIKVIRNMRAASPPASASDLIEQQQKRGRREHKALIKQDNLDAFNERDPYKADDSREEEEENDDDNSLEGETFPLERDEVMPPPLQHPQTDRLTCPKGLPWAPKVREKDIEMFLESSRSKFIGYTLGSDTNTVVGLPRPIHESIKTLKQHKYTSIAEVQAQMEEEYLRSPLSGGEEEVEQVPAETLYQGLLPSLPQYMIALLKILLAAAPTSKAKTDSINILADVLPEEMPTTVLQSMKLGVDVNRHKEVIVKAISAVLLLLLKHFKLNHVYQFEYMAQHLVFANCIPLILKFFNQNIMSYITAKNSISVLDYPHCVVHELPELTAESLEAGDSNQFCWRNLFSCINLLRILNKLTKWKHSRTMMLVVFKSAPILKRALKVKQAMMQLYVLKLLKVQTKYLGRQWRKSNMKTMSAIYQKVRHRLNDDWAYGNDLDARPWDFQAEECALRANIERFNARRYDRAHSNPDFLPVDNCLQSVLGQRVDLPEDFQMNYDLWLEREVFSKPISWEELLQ
UniProt Q7Z3C6: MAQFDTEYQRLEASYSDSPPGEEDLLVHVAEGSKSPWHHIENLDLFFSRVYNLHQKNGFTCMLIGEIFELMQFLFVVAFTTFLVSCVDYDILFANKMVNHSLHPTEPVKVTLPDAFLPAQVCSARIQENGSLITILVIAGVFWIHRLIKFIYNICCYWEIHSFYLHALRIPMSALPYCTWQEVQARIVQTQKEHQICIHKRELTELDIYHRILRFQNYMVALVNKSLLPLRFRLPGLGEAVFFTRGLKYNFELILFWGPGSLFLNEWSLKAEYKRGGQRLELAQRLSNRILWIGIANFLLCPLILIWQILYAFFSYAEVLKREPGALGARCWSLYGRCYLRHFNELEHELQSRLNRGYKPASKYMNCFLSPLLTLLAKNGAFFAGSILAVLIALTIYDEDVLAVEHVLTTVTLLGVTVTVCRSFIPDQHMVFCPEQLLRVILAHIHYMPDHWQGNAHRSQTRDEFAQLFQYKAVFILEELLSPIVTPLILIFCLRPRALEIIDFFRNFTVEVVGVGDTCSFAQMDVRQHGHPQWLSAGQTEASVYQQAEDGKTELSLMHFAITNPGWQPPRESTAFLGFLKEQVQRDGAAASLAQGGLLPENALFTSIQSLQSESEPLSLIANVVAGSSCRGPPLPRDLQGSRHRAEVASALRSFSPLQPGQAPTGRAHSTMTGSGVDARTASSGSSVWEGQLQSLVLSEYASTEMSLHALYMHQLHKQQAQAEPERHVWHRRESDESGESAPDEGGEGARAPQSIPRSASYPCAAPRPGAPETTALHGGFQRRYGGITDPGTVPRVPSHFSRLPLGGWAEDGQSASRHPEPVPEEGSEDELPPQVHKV
UniProt Q765P7: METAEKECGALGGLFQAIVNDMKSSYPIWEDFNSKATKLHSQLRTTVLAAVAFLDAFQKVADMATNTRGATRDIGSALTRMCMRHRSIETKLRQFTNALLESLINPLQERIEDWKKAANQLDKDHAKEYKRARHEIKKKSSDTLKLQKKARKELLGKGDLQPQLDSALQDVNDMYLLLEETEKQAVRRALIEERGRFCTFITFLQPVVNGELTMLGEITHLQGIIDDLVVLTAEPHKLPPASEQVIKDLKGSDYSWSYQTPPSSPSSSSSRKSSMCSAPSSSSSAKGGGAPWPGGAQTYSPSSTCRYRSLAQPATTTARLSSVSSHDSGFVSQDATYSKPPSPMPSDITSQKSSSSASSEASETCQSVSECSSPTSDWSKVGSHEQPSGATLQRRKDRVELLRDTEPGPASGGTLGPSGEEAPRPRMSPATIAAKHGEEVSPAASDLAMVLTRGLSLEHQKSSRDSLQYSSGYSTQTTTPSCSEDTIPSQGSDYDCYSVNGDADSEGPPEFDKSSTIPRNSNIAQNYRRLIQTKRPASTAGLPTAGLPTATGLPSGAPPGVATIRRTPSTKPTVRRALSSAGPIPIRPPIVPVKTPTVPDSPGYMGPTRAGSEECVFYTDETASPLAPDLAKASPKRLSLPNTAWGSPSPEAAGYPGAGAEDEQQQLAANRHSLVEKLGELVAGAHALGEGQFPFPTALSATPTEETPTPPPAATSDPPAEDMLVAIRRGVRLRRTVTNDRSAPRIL
UniProt Q6UWP7: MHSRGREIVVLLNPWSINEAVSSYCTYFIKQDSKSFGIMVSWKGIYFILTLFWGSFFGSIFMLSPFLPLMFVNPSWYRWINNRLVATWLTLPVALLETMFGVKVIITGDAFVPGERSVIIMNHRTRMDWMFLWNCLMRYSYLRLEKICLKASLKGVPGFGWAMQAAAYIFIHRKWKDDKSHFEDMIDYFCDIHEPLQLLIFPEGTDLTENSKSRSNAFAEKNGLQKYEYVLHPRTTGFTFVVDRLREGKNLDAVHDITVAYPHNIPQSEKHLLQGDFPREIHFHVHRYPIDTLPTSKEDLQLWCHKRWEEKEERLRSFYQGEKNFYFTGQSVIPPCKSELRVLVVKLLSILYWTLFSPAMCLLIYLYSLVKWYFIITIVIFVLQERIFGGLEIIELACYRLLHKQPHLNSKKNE
UniProt Q6P4F2: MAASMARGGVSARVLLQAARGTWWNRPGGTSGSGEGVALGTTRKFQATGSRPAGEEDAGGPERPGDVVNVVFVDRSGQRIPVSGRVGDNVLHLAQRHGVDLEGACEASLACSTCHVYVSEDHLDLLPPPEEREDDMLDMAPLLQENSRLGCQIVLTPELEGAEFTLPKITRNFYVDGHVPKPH
UniProt Q5VT52: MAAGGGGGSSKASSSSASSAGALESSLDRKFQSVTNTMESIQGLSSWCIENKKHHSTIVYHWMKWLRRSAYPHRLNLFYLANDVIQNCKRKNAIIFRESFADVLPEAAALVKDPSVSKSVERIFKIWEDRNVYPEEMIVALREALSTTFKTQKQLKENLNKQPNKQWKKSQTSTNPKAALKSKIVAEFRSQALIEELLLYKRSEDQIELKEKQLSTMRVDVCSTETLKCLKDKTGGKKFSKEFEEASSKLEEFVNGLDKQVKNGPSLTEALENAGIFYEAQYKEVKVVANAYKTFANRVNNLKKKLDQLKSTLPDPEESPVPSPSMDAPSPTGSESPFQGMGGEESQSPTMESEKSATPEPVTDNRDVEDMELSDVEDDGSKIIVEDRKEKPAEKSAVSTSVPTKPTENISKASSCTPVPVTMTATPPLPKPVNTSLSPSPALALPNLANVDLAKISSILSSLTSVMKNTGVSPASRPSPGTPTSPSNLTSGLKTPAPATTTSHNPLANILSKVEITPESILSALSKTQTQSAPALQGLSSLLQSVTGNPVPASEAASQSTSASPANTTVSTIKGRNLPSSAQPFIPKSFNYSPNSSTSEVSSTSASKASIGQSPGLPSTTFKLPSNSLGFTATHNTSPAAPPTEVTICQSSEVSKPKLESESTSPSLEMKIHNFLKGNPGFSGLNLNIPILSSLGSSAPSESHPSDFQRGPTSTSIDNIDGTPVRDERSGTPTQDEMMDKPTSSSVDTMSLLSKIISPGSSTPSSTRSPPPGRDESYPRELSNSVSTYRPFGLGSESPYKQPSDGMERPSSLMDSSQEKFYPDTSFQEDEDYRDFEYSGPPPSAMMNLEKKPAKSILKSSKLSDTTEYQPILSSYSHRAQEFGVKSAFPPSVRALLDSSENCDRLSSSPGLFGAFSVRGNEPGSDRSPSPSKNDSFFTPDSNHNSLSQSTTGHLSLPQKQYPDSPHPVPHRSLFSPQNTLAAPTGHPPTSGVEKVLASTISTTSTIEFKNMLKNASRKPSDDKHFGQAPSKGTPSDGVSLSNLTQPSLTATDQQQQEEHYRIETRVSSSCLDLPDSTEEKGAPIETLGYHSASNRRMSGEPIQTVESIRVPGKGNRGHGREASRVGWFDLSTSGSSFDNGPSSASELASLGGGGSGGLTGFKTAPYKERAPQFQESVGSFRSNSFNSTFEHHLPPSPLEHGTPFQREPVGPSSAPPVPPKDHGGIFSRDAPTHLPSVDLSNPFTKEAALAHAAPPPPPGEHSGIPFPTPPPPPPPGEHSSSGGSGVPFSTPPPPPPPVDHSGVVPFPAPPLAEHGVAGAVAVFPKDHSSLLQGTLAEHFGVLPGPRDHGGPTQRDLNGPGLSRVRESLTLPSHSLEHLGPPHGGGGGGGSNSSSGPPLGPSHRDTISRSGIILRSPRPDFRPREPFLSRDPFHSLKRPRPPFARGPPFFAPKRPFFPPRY

Target	NP40-soluble protein abundance (concentration: 1mM)	NP40-soluble protein abundance (concentration: 2mM)	NP40-soluble protein abundance (concentration: 4mM)	NP40-soluble protein abundance (concentration: 6mM)	NP40-soluble protein abundance (concentration: 8mM)	NP40-soluble protein abundance (concentration: 10mM)
UniProt Q66K74 and related entries	1.04 ± 0.024	1.06 ± 0.034	1.05 ± 0.027	1.03 ± 0.022	1.01 ± 0.045	1.02 ± 0.032
ERICH5 (UniProt Q6P6B1)	0.999 ± 0.02	1.08 ± 0.1	1 ± 0.02	0.987 ± 0.032	0.963 ± 0.056	0.989 ± 0.044
FAM117B (UniProt Q6P1L5)	0.99 ± 0.022	1.07 ± 0.04	1.01 ± 0.025	1.005 ± 0.01	0.9688 ± 0.0059	1.01 ± 0.022
GLT8D1 (UniProt Q68CQ7)	1.01 ± 0.031	1.03 ± 0.022	1.03 ± 0.087	1.06 ± 0.018	1.05 ± 0.055	1.08 ± 0.11
UniProt Q6P3S1 and related entries	1.014 ± 0.0082	1 ± 0.016	0.9726 ± 0.0053	0.991 ± 0.0054	0.9776 ± 0.00099	0.982 ± 0.02
KCTD9 (UniProt Q7L273)	0.987 ± 0.031	0.958 ± 0.039	0.958 ± 0.025	0.997 ± 0.035	0.968 ± 0.047	0.948 ± 0.042
UniProt Q71RC2 and related entries	1.03 ± 0.034	1.04 ± 0.015	1.06 ± 0.041	1.06 ± 0.061	1.074 ± 0.0034	1.07 ± 0.039
MICAL3 (UniProt Q7RTP6)	0.992 ± 0.031	1.03 ± 0.036	1.01 ± 0.048	0.974 ± 0.026	0.974 ± 0.044	0.98 ± 0.059
RFWD3 (UniProt Q6PCD5)	0.995 ± 0.021	0.969 ± 0.015	0.957 ± 0.022	0.992 ± 0.011	0.9855 ± 0.0065	0.968 ± 0.022
UniProt Q6NXT6 and related entries	1 ± 0.024	1.02 ± 0.071	1 ± 0.023	0.974 ± 0.029	0.915 ± 0.027	0.979 ± 0.023
UniProt Q6IQ49 and related entries	0.971 ± 0.025	1.01 ± 0.051	0.986 ± 0.025	0.981 ± 0.022	0.967 ± 0.043	0.988 ± 0.052
UniProt Q6PCB8 and related entries	1.02 ± 0.012	1.06 ± 0.045	0.997 ± 0.017	1.02 ± 0.064	0.99 ± 0.014	1.01 ± 0.041
CBLL1 (UniProt Q75N03)	1 ± 0.01	1.04 ± 0.022	1.03 ± 0.045	0.995 ± 0.015	0.976 ± 0.014	0.985 ± 0.016
UniProt Q5VSL9	0.982 ± 0.051	0.9935 ± 0.0092	0.978 ± 0.026	0.975 ± 0.015	0.95 ± 0.011	0.987 ± 0.031
UniProt Q6NUQ4 and related entries	1.02 ± 0.029	1.1 ± 0.079	1.06 ± 0.036	1.11 ± 0.014	1.1 ± 0.029	1.16 ± 0.022
TTC37 (UniProt Q6PGP7)	0.822 ± 0.084	0.793 ± 0.14	0.791 ± 0.11	0.768 ± 0.077	0.761 ± 0.078	0.76 ± 0.079
UniProt Q6P9B6	1.03 ± 0.064	1.03 ± 0.094	1.01 ± 0.071	0.991 ± 0.035	1.01 ± 0.054	1.01 ± 0.075
DUS1L (UniProt Q6P1R4)	1.03 ± 0.043	1.05 ± 0.057	1.01 ± 0.053	1.03 ± 0.061	1 ± 0.022	1.02 ± 0.058
UniProt Q7L2E3-2	1.02 ± 0.08	1 ± 0.12	1.06 ± 0.096	1.05 ± 0.075	1.1 ± 0.1	1.1 ± 0.13
UniProt Q68EM7-2|Q68EM7-3|Q68EM7	0.97 ± 0.032	1.01 ± 0.061	0.956 ± 0.036	1.02 ± 0.034	0.987 ± 0.021	1.01 ± 0.026

Target	NP40-soluble protein abundance (concentration: 1mM)	NP40-soluble protein abundance (concentration: 2mM)	NP40-soluble protein abundance (concentration: 4mM)	NP40-soluble protein abundance (concentration: 6mM)	NP40-soluble protein abundance (concentration: 8mM)	NP40-soluble protein abundance (concentration: 10mM)
RINT1 (UniProt Q6NUQ1)	0.997 ± 0.039	0.988 ± 0.036	0.966 ± 0.031	0.963 ± 0.032	0.919 ± 0.012	0.937 ± 0.05
LMBRD2 (UniProt Q68DH5)	1.02 ± 0.0087	1.07 ± 0.086	1.01 ± 0.029	1.01 ± 0.048	0.951 ± 0.019	0.992 ± 0.024
UniProt Q7Z3C6 and related entries	0.978 ± 0.018	0.991 ± 0.04	0.996 ± 0.034	0.987 ± 0.033	0.982 ± 0.027	0.988 ± 0.03
UniProt Q6N043 and related entries	1.02 ± 0.027	1.07 ± 0.056	1.04 ± 0.024	1.07 ± 0.027	1.09 ± 0.05	1.08 ± 0.049
UniProt Q6P4E1-2|Q6P4E1-4|Q6P4E1-5|Q6P4E1	0.968 ± 0.029	1.03 ± 0.078	0.976 ± 0.017	0.944 ± 0.036	0.925 ± 0.049	0.917 ± 0.031
UniProt Q6RI45 and related entries	0.999 ± 0.016	0.9969 ± 0.0018	0.986 ± 0.016	0.9818 ± 0.0045	1 ± 0.043	1 ± 0.022
EDC4 (UniProt Q6P2E9)	0.963 ± 0.03	0.985 ± 0.029	0.957 ± 0.039	0.957 ± 0.035	0.942 ± 0.045	0.957 ± 0.043
PRPF8 (UniProt Q6P2Q9)	0.989 ± 0.039	0.892 ± 0.15	0.979 ± 0.085	0.966 ± 0.098	1.05 ± 0.13	1.02 ± 0.16
UniProt Q765P7	1.03 ± 0.048	1.05 ± 0.097	1.03 ± 0.024	1.02 ± 0.021	0.99 ± 0.03	1.01 ± 0.035
UniProt Q6ZSZ5	1.02 ± 0.019	1.05 ± 0.03	1.04 ± 0.054	1.01 ± 0.022	0.986 ± 0.053	1.02 ± 0.048
UniProt Q6NW34 and related entries	1.01 ± 0.027	1.02 ± 0.033	0.977 ± 0.084	0.978 ± 0.028	0.958 ± 0.043	0.965 ± 0.032
UniProt Q70Z53 and related entries	0.966 ± 0.017	0.976 ± 0.016	0.992 ± 0.01	0.982 ± 0.044	0.976 ± 0.036	0.95 ± 0.045
ADNP2 (UniProt Q6IQ32)	1 ± 0.043	1.03 ± 0.02	1.06 ± 0.035	1.04 ± 0.053	1.03 ± 0.029	1.05 ± 0.058
UniProt Q684P5-2|Q684P5-3|Q684P5	1 ± 0.035	1 ± 0.024	0.997 ± 0.051	0.977 ± 0.029	0.963 ± 0.048	0.968 ± 0.026
UniProt Q6UWP7 and related entries	0.949 ± 0.042	0.949 ± 0.032	0.977 ± 0.029	0.956 ± 0.028	0.985 ± 0.016	0.949 ± 0.018
UniProt Q6FIF0 and related entries	0.9913 ± 0.0097	1.04 ± 0.086	1.01 ± 0.033	1.01 ± 0.011	1.02 ± 0.024	1.01 ± 0.029
UniProt Q7Z3U7 and related entries	1.01 ± 0.094	1.02 ± 0.053	0.99 ± 0.038	0.923 ± 0.046	0.937 ± 0.039	0.947 ± 0.033
CYB5R4 (UniProt Q7L1T6)	0.98 ± 0.049	1 ± 0.012	0.986 ± 0.034	0.987 ± 0.047	0.946 ± 0.028	0.962 ± 0.011
UniProt Q6UXB8 and related entries	0.98 ± 0.029	0.9743 ± 0.0016	0.97 ± 0.037	1.01 ± 0.051	1.04 ± 0.041	1 ± 0.061
UniProt Q6P4A7 and related entries	0.9841 ± 0.0091	0.9884 ± 0.0064	0.98 ± 0.02	0.995 ± 0.0066	0.991 ± 0.026	0.983 ± 0.016

Target	NP40-soluble protein abundance (concentration: 1mM)	NP40-soluble protein abundance (concentration: 2mM)	NP40-soluble protein abundance (concentration: 4mM)	NP40-soluble protein abundance (concentration: 6mM)	NP40-soluble protein abundance (concentration: 8mM)	NP40-soluble protein abundance (concentration: 10mM)
UniProt Q7Z3D6-2	1.04 ± 0.017	1.04 ± 0.027	1.03 ± 0.03	0.999 ± 0.023	1.01 ± 0.024	1.01 ± 0.031
Q5VYH9 and related entries (UniProt Q9HBG7)	1 ± 0.017	1.04 ± 0.038	0.997 ± 0.013	1 ± 0.014	0.998 ± 0.031	0.979 ± 0.031
UniProt Q68E01 and related entries	0.994 ± 0.036	1.016 ± 0.01	1.04 ± 0.073	1.02 ± 0.058	1.05 ± 0.076	1.05 ± 0.11
UniProt Q5VIR6-4	1.04 ± 0.041	1.03 ± 0.042	1.04 ± 0.045	1.02 ± 0.043	0.994 ± 0.044	1.02 ± 0.063
DNMBP (UniProt Q6XZF7)	1.03 ± 0.027	1.05 ± 0.011	1.05 ± 0.055	1.01 ± 0.011	1.01 ± 0.013	1.03 ± 0.019
FDX2 (UniProt Q6P4F2)	0.982 ± 0.02	1.02 ± 0.025	0.97 ± 0.028	0.984 ± 0.029	0.987 ± 0.017	0.969 ± 0.013
UniProt Q71SY5 and related entries	0.966 ± 0.019	0.914 ± 0.14	0.995 ± 0.021	1.03 ± 0.012	1.04 ± 0.041	1.05 ± 0.013
CNNM4 (UniProt Q6P4Q7)	0.967 ± 0.012	1 ± 0.017	0.99 ± 0.018	0.972 ± 0.023	0.9841 ± 0.0088	1.01 ± 0.024
MBLAC2 (UniProt Q68D91)	0.981 ± 0.042	0.913 ± 0.065	0.973 ± 0.033	0.943 ± 0.053	0.988 ± 0.029	0.942 ± 0.049
UniProt Q6P087 and related entries	1 ± 0.039	1.02 ± 0.019	1.02 ± 0.057	1.06 ± 0.03	1.08 ± 0.025	1.07 ± 0.057
UniProt Q6P996 and related entries	1 ± 0.012	0.9997 ± 0.0084	0.98 ± 0.028	0.946 ± 0.036	0.939 ± 0.032	0.932 ± 0.022
UniProt Q6PCB7 and related entries	1.03 ± 0.034	1.01 ± 0.031	1.01 ± 0.04	0.999 ± 0.022	1.01 ± 0.04	0.9999 ± 0.0099
UniProt Q6IA17 and related entries	0.974 ± 0.033	0.98 ± 0.03	0.981 ± 0.046	0.987 ± 0.045	0.981 ± 0.016	0.977 ± 0.022
Q5W125 and related entries (UniProt Q9NWW6)	0.97 ± 0.01	0.972 ± 0.02	0.949 ± 0.013	1.022 ± 0.01	0.971 ± 0.017	0.93318 ± 6.6e-05
UniProt Q7L266 and related entries	1.01 ± 0.038	1.05 ± 0.081	1.03 ± 0.054	1.01 ± 0.016	0.981 ± 0.039	0.995 ± 0.055
UniProt Q7Z3J2 and related entries	0.9593 ± 0.0078	0.944 ± 0.023	0.974 ± 0.026	0.9327 ± 0.0059	0.935 ± 0.031	0.958 ± 0.053
UniProt Q7LBC6	1.01 ± 0.027	1.03 ± 0.041	1.01 ± 0.013	0.991 ± 0.026	0.962 ± 0.012	0.995 ± 0.017
UniProt Q7L5D6	0.983 ± 0.066	0.874 ± 0.065	1 ± 0.046	0.996 ± 0.058	1.04 ± 0.079	1.05 ± 0.038
UniProt Q5VT52 and related entries	1.02 ± 0.022	1.08 ± 0.069	1.047 ± 0.0076	1.08 ± 0.025	1.05 ± 0.022	1.11 ± 0.041
REEP3 (UniProt Q6NUK4)	1.01 ± 0.039	1.01 ± 0.022	1.02 ± 0.028	1.02 ± 0.029	1.04 ± 0.017	1.01 ± 0.012
